Results taken from the supplement of paper PMC4840960.
Counter-ions that a name gives are not always drawn. ± gives the standard deviation of the averaged measurements. The list shows a part of the results. Part of the spread comes from offsets between plates or batches.

Test system: E18 rat cortical neuron-glia co-culture
Experiment: total nuclei (DAPI) / Olig2+ nuclei (ratio); higher = more depletion of OPC/OL lineage cells
Conditions: treatment time: 8 days (DIV5-DIV13)

SMILES: CCOC(=O)[C@H](CCc1ccccc1)N[C@H]1CCc2ccccc2N(CC(=O)O)C1=O [Benazepril]
- total nuclei (1 µM): 3.01
- total nuclei (5 µM): 3

SMILES: CN1C(=O)CC[C@H]1c1cccnc1 [Cotinine]
- total nuclei (1 µM): 5.4
- total nuclei (5 µM): 5.3

SMILES: Nc1nc(F)nc2c1ncn2[C@@H]1O[C@H](CO)[C@@H](O)[C@@H]1O [Fludarabine]
- total nuclei (1 µM): 2.4
- total nuclei (5 µM): 3.8

SMILES: Clc1ccc(COC(Cn2ccnc2)c2ccc(Cl)cc2Cl)c(Cl)c1 (stereo not given) [Miconazole]
- total nuclei (1 µM): 5

SMILES: CN(C)CCCN1c2ccccc2CCc2ccccc21 [Imipramine]
- total nuclei (1 µM): 2.97
- total nuclei (5 µM): 3.3

SMILES: CS(=O)(=O)c1ccc(-c2cc(Br)sc2-c2ccc(F)cc2)cc1
- total nuclei (1 µM): 3.73

SMILES: c1ccc(CC2=NCCN2)cc1 [Tolazoline]
- total nuclei (1 µM): 4.31

SMILES: CC(C)(C)C(O)/C=C/c1ccc2c(c1)OCO2 (stereo not given) [Stiripentol]
- total nuclei (1 µM): 2.75
- total nuclei (5 µM): 2.9

SMILES: CCCCN1CCCC1CNC(=O)c1cc(C#N)c2ccccc2c1OC (stereo not given) [Nafadotride]
- total nuclei (1 µM): 3.12
- total nuclei (5 µM): 3.2

SMILES: COc1cccc2c1C(=O)c1c(O)c3c(c(O)c1C2=O)C[C@@](O)(C(=O)CO)C[C@@H]3O[C@H]1C[C@H](N)[C@H](O)[C@H](C)O1 [Adriamycin]
- total nuclei (1 µM): 10.3 ± 12

SMILES: C#C[C@]1(O)CC[C@H]2[C@@H]3CCc4cc(O)ccc4[C@H]3CC[C@@]21C [Ethinyl Estradiol]
- total nuclei (1 µM): 4.38
- total nuclei (5 µM): 14

SMILES: CC(=O)[C@]1(O)Cc2c(O)c3c(c(O)c2[C@@H](O[C@H]2C[C@H](N)[C@H](O)[C@H](C)O2)C1)C(=O)c1ccccc1C3=O [Idarubicin]
- total nuclei (1 µM): > 40
- total nuclei (5 µM): > 40

SMILES: CSc1ccc2c(c1)N(CCC1CCCCN1C)c1ccccc1S2 (stereo not given) [Thioridazine]
- total nuclei (1 µM): 3.5

SMILES: CCCCc1nc(Cl)c(CO)n1Cc1ccc(-c2ccccc2-c2nnn[nH]2)cc1 [Losartan]
- total nuclei (1 µM): 3.72
- total nuclei (5 µM): > 40

SMILES: CN1CCN(C2=Nc3cc(F)ccc3Cc3ccccc32)CC1 [Fluperlapine]
- total nuclei (1 µM): 2.9
- total nuclei (5 µM): 2.8

SMILES: COc1cc(/C=C/c2ccc(O)cc2)cc(OC)c1 [Pterostilbene]
- total nuclei (1 µM): 3.5
- total nuclei (5 µM): 19.1

SMILES: Clc1ccc(CO/N=C(\Cn2ccnc2)c2ccc(Cl)cc2Cl)c(Cl)c1 [Oxiconazole]
- total nuclei (1 µM): 4.02
- total nuclei (5 µM): > 40

SMILES: N#Cc1ccc(C(c2ccc(C#N)cc2)n2cncn2)cc1 [letrozole]
- total nuclei (1 µM): 3.3
- total nuclei (5 µM): 4.5

SMILES: COc1cc([C@@H]2c3cc4c(cc3[C@@H](O[C@@H]3O[C@@H]5CO[C@@H](C)O[C@H]5[C@H](O)[C@H]3O)[C@H]3COC(=O)[C@H]23)OCO4)cc(OC)c1O [Etoposide]
- total nuclei (1 µM): > 40

SMILES: Oc1c(Cl)cc(Cl)c(Cl)c1Cc1c(O)c(Cl)cc(Cl)c1Cl [Hexachlorophene]
- total nuclei (1 µM): > 40

SMILES: Cc1onc(-c2c(Cl)cccc2Cl)c1C(=O)N[C@@H]1C(=O)N2[C@@H]1SC(C)(C)[C@@H]2C(=O)O [Dicloxacillin]
- total nuclei (1 µM): 4.3
- total nuclei (5 µM): 3.8

SMILES: CC(=O)O[C@]1(C(C)=O)CC[C@H]2[C@@H]3C=C(C)C4=CC(=O)CC[C@]4(C)[C@H]3CC[C@@]21C [Megestrol acetate]
- total nuclei (1 µM): 3.84
- total nuclei (5 µM): 3.9

SMILES: C=CC[C@@H]1/C=C(\C)C[C@H](C)C[C@H](OC)[C@H]2O[C@@](O)(C(=O)C(=O)N3CCCC[C@H]3C(=O)O[C@H](/C(C)=C/[C@@H]3CC[C@@H](O)[C@H](OC)C3)[C@H](C)[C@@H](O)CC1=O)[C@H](C)C[C@@H]2OC [Tacrolimus]
- total nuclei (1 µM): 3.13
- total nuclei (5 µM): 3.5

SMILES: CN1[C@@H](CC(=O)c2ccccc2)CCC[C@H]1C[C@H](O)c1ccccc1 [Lobeline]
- total nuclei (1 µM): 2.71
- total nuclei (5 µM): 2.8

SMILES: Cc1nccn1CC1CCc2c(c3ccccc3n2C)C1=O (stereo not given) [Ondansetron]
- total nuclei (1 µM): 4.03 ± 0.4
- total nuclei (5 µM): 3.95 ± 0.35

SMILES: CN1[C@@H]2CC[C@H]1C[C@@H](OC(c1ccccc1)c1ccccc1)C2 [Benzatropine]
- total nuclei (1 µM): 11.3

SMILES: Clc1cccc(Cl)c1NC1=NCCN1 [Clonidine hydrochloride]
- total nuclei (1 µM): 2.48
- total nuclei (5 µM): 2.5

SMILES: CCCSc1ccc2[nH]c(NC(=O)OC)nc2c1 [Albendazole]
- total nuclei (1 µM): 12.8
- total nuclei (5 µM): 9.4

SMILES: NC(=O)N1c2ccccc2C=Cc2ccccc21 [Carbamazepine]
- total nuclei (1 µM): 2.32
- total nuclei (5 µM): 2.4

SMILES: CC/C(=C(\c1ccccc1)c1ccc(OCCN(C)C)cc1)c1ccccc1 [Tamoxifen]
- total nuclei (1 µM): 3.1

SMILES: Cc1ccc(O)c([C@H](CCN(C(C)C)C(C)C)c2ccccc2)c1 [Tolterodine]
- total nuclei (1 µM): 3.73
- total nuclei (5 µM): > 40

SMILES: C[C@@H]1O[C@@H](OC[C@H]2O[C@@H](Oc3c(-c4ccc(O)c(O)c4)oc4cc(O)cc(O)c4c3=O)[C@H](O)[C@@H](O)[C@@H]2O)[C@H](O)[C@H](O)[C@H]1O [Rutin]
- total nuclei (1 µM): 2.7
- total nuclei (5 µM): 2.7
